# Some of these results come from one statement about several compounds together.
# Test system: SMCs in relation to ECs
# Assay: activity ratio: efficiency towards SMCs / efficiency towards ECs
# Format: cell-based
# Conditions: >1 = SMC-selective
# Method: For determination of vascular SMC proliferation, 0.5×10^4 viable rat aortic SMCs per well were seeded in SMC growth medium (DMEM/F12 medium with 20% serum, 30 μg/mL Gentamicin and 15 ng/mL Amphotericin) in 96-well plates. 24 h later, the medium was removed, the cells were washed once with SMC starvation medium (DMEM/F12 medium with 0.1% serum, 0.2% BSA, 30 μg/mL Gentamicin and 15 ng/mL Amphotericin) and incubated in starvation medium for further 24 h.
# The quiescent cells were then pretreated for 30 min with the test compounds and induced to proliferate with 20 ng/mL platelet-derived growth factor (PDGF). Unstimulated cells were utilized for normalization and estimation of the basal level of proliferation. The final concentration of the solvent vehicle, dimethyl sulfoxide (DMSO), was the same (0.1%) in all wells. 48 h later, the SMC proliferation was quantified by resazurin dye conversion for 2 h as previously described (H. Joa et al., J. Nat. Prod. 74(6), 1513-6 (2011)).
# For determination of endothelial cell proliferation, 0.5×10^4 HUVECtert immortalized human umbilical vein endothelial cells (H. B. Schiller et al., Mol. Biol. Cell. 20(3), 745-756 (2009)) were seeded in 96-well plates for 24 h in HUVEC Complete Medium (EBM™ growth medium supplemented with 10% fetal bovine serum, EBM™ SingleQuots (Lonza, Basel, Switzerland), 100 U/mL benzylpenicillin, 100 μg/mL streptomycin, and 1% amphotericin). Afterwards, the medium was exchanged with fresh HUVEC Complete Medium and cells were treated with the indicated compounds for 48 h. After the end of the incubation period, the medium was removed, the cells were washed once with 200 μL/well PBS, and treated with 150 μL HUVEC Complete Medium containing 10 μg/mL resazurin. 2 h later, the fluorescence was measured at a wavelength of 580 nm, with excitation wavelength 535 nm in a 96-well plate reader (Tecan GENios Pro; Tecan Group Ltd., Mannedorf, Switzerland).
# In every case, the percentage of viable cells was subtracted from 1, in order to obtain a measure of efficiency of the test compounds towards each particular type of cells, and subsequently, the efficiency quotient towards SMCs and ECs was calculated and taken as the “activity ratio” and thus as a measure of selective efficiency of each test compound towards SMCs in relation to ECs. For example, the synthetic Leoligin with the bio ID 2418 prepared in Comparative Example 27 as compound 10-22 gave the following results:
# Due to the usual fluctuations in determining surviving cells, which amount to approximately ±10%, and due to the relatively strong resulting fluctuations in calculating quotients—especially if the inhibitory effect of said novel compounds towards ECs is very poor—said threshold value of 1.50 for the activity ratio, as already mentioned above, was introduced.
# In the following, a table listing every compound prepared in examples and comparative Examples for which an activity ratio (a.r.) of >1.0 was determined, is given.
row,SMILES,Activity ratio (efficiency ratio)
1,"COc1ccc([C@H]2OC[C@H](Cc3cccc4ccccc34)[C@@H]2CO)cc1OC [Example 3, ((2S,3R,4R)-2-(3,4-dimethoxyphenyl)-4-(naphthalen-1-ylmethyl)tetrahydro-furan-3-yl)methanol]",at least 2.0
2,"COc1ccc([C@H]2OC[C@H](Cc3ccc(C(C)(C)C)cc3)[C@@H]2COC(=O)C2CCCC2)cc1OC [Example 30, ((2S,3R,4R)-4-(4-(tert-butyl)benzyl)-2-(3,4-dimethoxyphenyl)tetrahydrofuran-3-yl)methyl cyclopentanecarboxylate]",at least 2.0
3,"COc1ccc(C[C@H]2CO[C@H](c3ccc(OC)c(OC)c3)[C@H]2COC(=O)C=C(C)C)cc1OC [Example 25, ((2S,3R,4R)-4-(3,4-dimethoxybenzyl)-2-(3,4-dimethoxyphenyl)tetrahydrofuran-3-yl)methyl 3-methylbut-2-enoate]",at least 2.0
4,"COc1ccc(C[C@H]2CO[C@H](c3ccc(F)cc3)[C@H]2COC(=O)C2CCC2)cc1OC [Example 33, ((2S,3R,4R)-4-(3,4-dimethoxybenzyl)-2-(4-fluorophenyl)tetrahydrofuran-3-yl)methyl cyclobutanecarboxylate]",at least 2.0
5,"COc1ccc(C[C@H]2CO[C@H](c3ccc(OC)c(OC)c3)[C@H]2COC(=O)CC23CC4CC(CC(C4)C2)C3)cc1OC [Example 27, ((2S,3R,4R)-4-(3,4-dimethoxybenzyl)-2-(3,4-dimethoxyphenyl)tetrahydrofuran-3-yl) methyl 2-(adamantan-1-yl)acetate]",at least 2.0
6,"COc1ccc(C[C@H]2CO[C@H](c3cc(OC)c(OC)c(OC)c3)[C@H]2COC(=O)C2=CCCC2)cc1OC [Example 35, ((2S,3R,4R)-4-(3,4-dimethoxybenzyl)-2-(3,4,5-trimethoxyphenyl)tetrahydro-furan-3-yl)methyl cyclopent-1-enecarboxylate]",at least 2.0
7,"C/C=C/C(=O)OC[C@H]1[C@@H](Cc2ccc(OC)c(OC)c2)CO[C@@H]1c1ccc(OC)c(OC)c1 [Example 23, (E)-((2S,3R,4R)-4-(3,4-dimethoxybenzyl)-2-(3,4-dimethoxyphenyl)tetrahydro-furan-3-yl)methyl but-2-enoate]",at least 2.0
8,"C/C=C(/C)C(=O)OC[C@H]1[C@@H](Cc2ccc(C(=O)OCC)cc2)CO[C@@H]1c1cc(OC)c(OC)c(OC)c1 [Example 22, ethyl 4-(((3R,4R,5S)-4-((((Z)-2-methylbut-2-enoyl)oxy)methyl)-5-(3,4,5-trimethoxyphenyl)tetrahydrofuran-3-yl)methyl)benzoate]",at least 2.0
9,"COc1ccc(C[C@H]2CO[C@H](c3ccc(OC)c(OC)c3)[C@H]2COC(=O)/C=C/c2ccccc2)cc1OC [Example 24, ((2S,3R,4R)-4-(3,4-dimethoxybenzyl)-2-(3,4-dimethoxyphenyl)tetrahydrofuran-3-yl)methyl cinnamate]",at least 2.0
10,"CCCCc1ccc(C[C@H]2CO[C@H](c3ccc(OC)c(OC)c3)[C@H]2CO)cc1 [Example 5, ((2S,3R,4R)-4-(4-butylbenzyl)-2-(3,4-dimethoxyphenyl)tetrahydrofuran-3-yl)-methanol]",at least 2.0
11,"C/C=C(/C)C(=O)OC[C@H]1[C@@H](Cc2ccc(C(C)=O)cc2)CO[C@@H]1c1cc(OC)c(OC)c(OC)c1 [Example 21, (Z)-((2S,3R,4R)-4-(4-acetylbenzyl)-2-(3,4,5-trimethoxyphenyl)tetrahydrofuran-3-yl)methyl 2-methylbut-2-enoate]",at least 2.0
12,"COc1ccc(C[C@H]2CO[C@H](c3cc(OC)c(OC)c(OC)c3)[C@H]2COC(=O)C2CC2)cc1OC [Example 41, ((2S,3R,4R)-4-(3,4-dimethoxybenzyl)-2-(3,4,5-trimethoxyphenyl)tetrahydro-furan-3-yl)methyl cyclopropanecarboxylate]",at least 2.0
13,"COc1ccc([C@H]2OC[C@H](Cc3ccc(C(C)(F)F)cc3)[C@@H]2CO)cc1OC [Example 6, ((2S,3R,4R)-4-(4-(1,1-difluoroethyl)benzyl)-2-(3,4-dimethoxyphenyl)tetrahydro-furan-3-yl)methanol]",at least 2.0
14,"COc1ccc(C[C@H]2CO[C@H](c3cc(OC)c(OC)c(OC)c3)[C@H]2COC(=O)C2CCCC2)cc1OC [Example 40, ((2S,3R,4R)-4-(3,4-dimethoxybenzyl)-2-(3,4,5-trimethoxyphenyl)tetrahydro-furan-3-yl)methyl cyclopentanecarboxylate]",at least 2.0
15,"C/C=C(/C)C(=O)OC[C@H]1[C@@H](Cc2ccc(C(C)(C)C)cc2)CO[C@@H]1c1ccc(OC)c(OC)c1 [Example 10, (Z)-((2S,3R,4R)-4-(4-(tert-butyl)benzyl)-2-(3,4-dimethoxyphenyl)tetrahydro-furan-3-yl)methyl 2-methylbut-2-enoate]",at least 2.0
16,"COc1cc([C@H]2OC[C@H](Cc3ccc(-c4ccccc4)cc3)[C@@H]2CO)cc(OC)c1OC [Example 9, ((2S,3R,4R)-4-([1,1′-biphenyl]-4-ylmethyl)-2-(3,4,5-trimethoxyphenyl)-tetrahydrofuran-3-yl)methanol]",at least 2.0
17,"C/C=C(/C)C(=O)OC[C@H]1[C@@H](Cc2ccc(C(C)(C)C)cc2)CO[C@@H]1c1cc(OC)c(OC)c(OC)c1 [Example 20, (Z)-((2S,3R,4R)-4-(4-(tert-butyl)benzyl)-2-(3,4,5-trimethoxyphenyl)tetrahydro-furan-3-yl)methyl 2-methylbut-2-enoate]",at least 2.0

# — patent US20170157301A1, “LEOLIGIN DERIVATIVES AS SMOOTH MUSCLE CELL PROLIFERATION INHIBITORS” (TECHNISCHE UNIVERSITAET WIEN, priority 2014, published 2017)
